# Reference: PubChem BioAssay AID651640 (Broad Institute, 2012)
# The campaign covered roughly 350,000 compounds. About 6,000 (1.7%) were called active. The shares of active, inactive and inconclusive entries below differ from those in the screen. Cut-off read from the data, not from the text of the source: active = CPE inhibition above about 20% (passing the limit was not always enough); inconclusive = no clear call, values can overlap the other calls; tested in BHK-21 cells.
# Assay: protection of cells from dengue 2 killing – plate reader, single concentration, primary screen (AID 651640);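 note: 0% = median of neutral control wells and 100% = median of positive control wells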
# Conditions: DENV2-infected cells, cytopathic effect rescue, at 9.99 µM, hits give high values
row,SMILES,CPE inhibition
1,CCC(=O)Nc1ccc2c(c1)OC[C@H](C)N(C(=O)COC)C[C@@H](C)[C@H](OC)CN(C)C2=O,inactive: 4.45%
2,CCN(C[C@H]1N[C@@](C)(C(=O)OC)[C@H]2C(=O)N(C)C(=O)[C@@H]12)S(=O)(=O)c1ccc(-c2ccccc2)cc1,active: 20.1%
3,COc1ccc(C2OC(CCc3ccccc3)CC3=C2C(=O)OC(C)(C)O3)cc1 (centres undefined),inconclusive: 40.8%
4,CC(=C/c1ccccc1)/C=N/NC(=O)c1cccs1,inconclusive: 27.5%
5,C[C@@H]1CCCCO[C@H](CN(C)Cc2ccc(C(=O)O)cc2)[C@H](C)CN([C@H](C)CO)C(=O)c2cc(NS(=O)(=O)c3ccc(F)cc3)ccc2O1,inconclusive: 43.1%
6,COc1ccc(NC(=O)N(C)C[C@@H]2OCCCC[C@@H](C)Oc3ccc(NS(=O)(=O)c4ccc(OC)cc4)cc3C(=O)N([C@@H](C)CO)C[C@H]2C)cc1,inconclusive: 33.1%
7,N#Cc1ccc(-c2ccc([C@H]3[C@H]4CN(C(=O)Nc5ccc(F)cc5)CCCCN4[C@H]3CO)cc2)cc1,active: 23.8%
8,C[C@H](CO)N1C[C@H](C)[C@H](CN(C)S(=O)(=O)c2ccc(F)cc2)OCCCC[C@H](C)Oc2ccc(NS(C)(=O)=O)cc2C1=O,inactive: 19.8%
9,CN1CCN(c2ncnc3c2ncn3[C@H]2CN(Cc3cccnc3)C[C@@H](CO)O2)CC1,inconclusive: 60.2%
10,COc1cc(CCC(=O)OCc2ccccc2C#N)cc(OC)c1OC,inconclusive: 24%
11,CC(=O)N1CCC(N(CCCOC(C)C)C(=O)Nc2ccc(Cl)cc2)CC1,inconclusive: 27.7%
12,CN1CCCCN2[C@H](CO)[C@H](c3ccc(-c4ccccc4)cc3)[C@H]2C1,inconclusive: 20.6%
13,CN(C)CCOC(c1ccccc1)c1ccccc1,inconclusive: 26.9%
14,COC(=O)c1ccccc1S(=O)(=O)N1CCC(C(=O)NC2CCCCC2)CC1,inconclusive: 37.5%
15,O=C(NCc1nnnn1-c1ccc(Cl)cc1)c1ccc2c(c1)OCO2,inconclusive: 39.9%
16,C[C@H]1CN([C@@H](C)CO)C(=O)c2cc(NC(=O)CCCN(C)C)ccc2O[C@H]1CN(C)Cc1ccc(C(F)(F)F)cc1,inactive: 3.6%
17,Cc1cccc(S(=O)(=O)N2C[C@@H]3[C@H](c4ccccc42)[C@H](CO)N3C(=O)c2ccccc2)c1,inconclusive: 55.9%
18,COc1ccc(NC(=O)N(C)C[C@@H]2OCCCC[C@@H](C)Oc3ccc(NC(=O)Nc4ccccc4)cc3C(=O)N([C@@H](C)CO)C[C@H]2C)cc1,inactive: 0.482%
19,COc1ccc(C#Cc2ccc([C@@H]3[C@@H](CO)N4CCCCN(C(=O)c5ccncc5)C[C@@H]34)cc2)cc1,active: 50.9%
20,Cc1ccc(-c2nc(NCCCO)c3ccccc3n2)cc1,active: 31.3%
21,COc1ccc(CNC(=O)C[C@@H]2C=C[C@@H](NC(=O)c3cccc(F)c3)[C@H](CO)O2)cc1,inconclusive: 36.4%
22,COc1ccc(/C=C/C(=O)Nc2ccc(S(=O)(=O)N3CCOCC3)cc2)c(OC)c1,inactive: 3.18%
23,CO[C@@H]1CN(C)C(=O)c2ccc(NS(=O)(=O)c3ccccc3)cc2OC[C@H](C)N(Cc2cccnc2)C[C@H]1C,inactive: -2.21%

# Three of the compounds above, bar-delimited:
row | SMILES | CPE inhibition
5 | C[C@@H]1CCCCO[C@H](CN(C)Cc2ccc(C(=O)O)cc2)[C@H](C)CN([C@H](C)CO)C(=O)c2cc(NS(=O)(=O)c3ccc(F)cc3)ccc2O1 | inconclusive: 43.1%
8 | C[C@H](CO)N1C[C@H](C)[C@H](CN(C)S(=O)(=O)c2ccc(F)cc2)OCCCC[C@H](C)Oc2ccc(NS(C)(=O)=O)cc2C1=O | inactive: 19.8%
14 | COC(=O)c1ccccc1S(=O)(=O)N1CCC(C(=O)NC2CCCCC2)CC1 | inconclusive: 37.5%

# (cont.)

row,SMILES,CPE inhibition
1,C[C@H](CO)N1C[C@H](C)[C@@H](CN(C)S(=O)(=O)c2cn(C)cn2)Oc2ccc(NC(=O)C3CCCCC3)cc2C1=O,inconclusive: 71.6%
2,Cc1nnc(SCC(=O)NC2CCCC2)n1-c1ccccc1,inconclusive: 55.6%
3,CN(C)CC#Cc1ccc([C@H]2[C@@H](CO)N3CCCCN(C(=O)C4CCC4)C[C@H]23)cc1,inconclusive: 25.6%
4,Cc1cc(C(=O)Nc2cccc3c2O[C@H](CN(C)C(=O)Nc2ccc(C(F)(F)F)cc2)[C@@H](C)CN([C@H](C)CO)C3=O)n(C)n1,active: 38.3%
5,Cc1cccc(C)c1NC(=O)C(c1cccc2ccccc12)n1c(=O)c(-c2cc3ccccc3[nH]2)nc2ccccc21 (centres undefined),inconclusive: 22.1%
6,C[C@H]1CN([C@@H](C)CO)C(=O)c2cccc(NC(=O)Nc3ccccc3)c2O[C@@H]1CN(C)S(=O)(=O)c1cn(C)cn1,active: 46.6%
7,O=C1NCCCC1C(=O)N1CCCCC1 (centres undefined),inactive: 2.99%
8,CN1C(=O)c2cc(NC(=O)C3CCOCC3)ccc2OC[C@H]2O[C@@H](CC(=O)O)CC[C@@H]21,inconclusive: 27.2%
9,CCCNC(=O)N1CC(=O)N2[C@H](C1)[C@@H](c1ccc(-c3cccc(C)c3)cc1)[C@@H]2CO,inactive: 6.1%
10,CCCc1cc(=O)[nH]c(SCC(=O)Nc2cccc(S(=O)(=O)N3CCCCC3)c2)n1,inconclusive: 39.5%
11,COc1ccc(S(=O)(=O)N(C)C[C@@H]2Oc3ccc(NS(=O)(=O)c4ccc(Cl)cc4)cc3CC(=O)N([C@@H](C)CO)C[C@@H]2C)cc1,active: 63.8%
12,COc1ccc(C(=O)N/N=C/c2ccc(N(C)c3ccccc3)cc2)cc1,inconclusive: 28.1%
13,O=C(C[C@H]1C[C@@H]2c3cc(NC(=O)Cc4ccncc4)ccc3O[C@@H]2[C@H](CO)O1)NCc1cccnc1,inactive: -11.8%
14,CCOc1ccccc1NC(=O)COC(=O)C(CC)c1ccccc1 (centres undefined),inconclusive: 22.2%
15,CCOc1ccc(NC(=O)CC2C(=O)N(c3cccc(OC)c3)C(=O)N2C(C)C)cc1 (centres undefined),inconclusive: 22.3%
16,CC(C)OC(=O)C[N+](C)(C)CCN1C(=O)C2C(c3ccccc3)C=CC(c3ccccc3)C2C1=O (centres undefined),inactive: 3.24%
17,COc1ccc2c(c1)CCCC21NC(=O)N(CC(=O)NCc2cccs2)C1=O (centres undefined),inconclusive: 31.4%
18,COc1ccc(NC(=O)N(C)C[C@@H]2Oc3cc(C#CCN(C)C)ccc3S(=O)(=O)N([C@H](C)CO)C[C@@H]2C)cc1,inactive: -5.58%
19,CC1(C(=O)NS(=O)(=O)c2ccccc2Cl)CCN1C(=O)c1ccco1 (centres undefined),active: 22.3%
20,CC(C)C[C@H](NC(=O)/C=C/[C@H]1O[C@@H](n2ccc(=O)[nH]c2=O)[C@H](O)[C@@H]1O)C(=O)O,inconclusive: 32.4%
21,Cc1ccc(NC(=O)C2CCC2)cc1S(=O)(=O)N1CCCCCC1,inactive: -5.2%
22,COc1ccc(S(=O)(=O)N(C)C[C@H]2Oc3ccc(NC(=O)Cc4ccccc4)cc3C(=O)N([C@@H](C)CO)C[C@H]2C)cc1,inconclusive: 23.5%
23,C[C@@H]1CCCCO[C@@H](CN(C)Cc2ccc(C(=O)O)cc2)[C@H](C)CN([C@H](C)CO)C(=O)c2cc(NS(=O)(=O)c3ccc(F)cc3)ccc2O1,inconclusive: 47.8%

row,SMILES,CPE inhibition
1,COc1ccc(NC(=O)C2CCC(CNS(=O)(=O)c3cccs3)CC2)cc1OC (centres undefined),active: 30.9%
2,O=C(C[C@H]1C[C@@H]2c3cc(NC(=O)NC4CCCCC4)ccc3O[C@@H]2[C@@H](CO)O1)NCCc1ccccc1,active: 37.2%
3,CC1CCCN(Cc2c(O)ccc3c4c(c(=O)oc23)CCCC4)C1 (centres undefined),inactive: -2.21%
4,C[C@@H]1CCCCO[C@@H](CN(C)S(=O)(=O)c2cccs2)[C@H](C)CN([C@@H](C)CO)C(=O)c2cc(NC(=O)NC3CCCCC3)ccc2O1,inconclusive: 75.9%
5,CC(=O)c1ccc(OC2(C)CCN(Cc3ccc4ccccc4c3)C2)cc1 (centres undefined),active: 117%
6,O=C1CC(NS(=O)(=O)c2ccc([N+](=O)[O-])cc2)CN1c1cccc(F)c1 (centres undefined),inconclusive: 23.7%
7,Cc1cccc(N2CCN(CC(O)COc3ccccc3Cl)CC2)c1 (centres undefined),inconclusive: 29.3%
8,COc1ccc(N(C)C(=O)Cc2c(C(=O)O)[nH]c3ccccc23)c(OC)c1,inactive: 4.35%
9,COc1ccc(S(=O)(=O)Nc2cccc3c2O[C@@H](CN(C)C)[C@@H](C)CN([C@H](C)CO)C3=O)cc1,inactive: 7.59%
10,COC(=O)CNc1cc(S(=O)(=O)N2CCCCC2)ccc1Oc1ccc(C(=O)OC)cc1,inconclusive: 20.4%
11,COc1ccc(S(=O)(=O)Nc2ccc3c(c2)C(=O)N([C@H](C)CO)C[C@H](C)[C@H](CN(C)S(=O)(=O)c2ccccc2)OCCCC[C@H](C)O3)cc1,inconclusive: 24.4%
12,O=C(C1CCN(S(=O)(=O)c2ccc(Br)s2)CC1)N1CCN(C2CCCCC2)CC1,active: 66.2%
13,CC(C)CC#Cc1ccc2c(c1)O[C@@H](CN(C)C)[C@@H](C)CN([C@@H](C)CO)S2(=O)=O,active: 27%
14,Cc1cc(C)c(C2=NOC3c4ccccc4OCC23)c(C)c1 (centres undefined),inconclusive: 44.2%
15,CNC(=O)C[C@H]1CC[C@H]2[C@@H](COc3ccc(NC(=O)c4ccc(F)c(F)c4)cc3C(=O)N2C)O1,active: 52.1%
16,O=C(CCNC(=O)c1ccc([N+](=O)[O-])cc1)NNC(=O)c1ccncc1,inconclusive: 21.4%
17,NC(=O)CC(NC(=O)Cc1cccc2ccccc12)c1ccc(N2CCN(c3ccccn3)CC2)c([N+](=O)[O-])c1 (centres undefined),inconclusive: 47.2%
18,Cn1c(=O)n(C)c2cc(NC(=O)c3ccccc3NS(C)(=O)=O)ccc21,inconclusive: 20.2%
19,CCc1ccccc1NC(=O)CN(C)C(=O)c1cccc(S(=O)(=O)N2CCCCCC2)c1,inconclusive: 23.7%
20,NC(=O)CSc1nnc(-c2ccc3c(c2)OCO3)o1,inactive: -2.12%
21,CC(=O)[C@H]1CC[C@H]2[C@@H]3CCC4=CC(=O)CC[C@]4(C)[C@H]3CC[C@]12C,inconclusive: 20%
22,O=C(Nc1cc(F)ccc1F)N[C@H]1CC[C@H](CCn2cc(C3CCCC3)nn2)O[C@H]1CO,inactive: 10%
23,COC(=O)[C@]12C[C@H](CC(=O)NCCC(C)C)C(=O)N(Cc3ccccc3)C1=C[C@H](C(C)C)O[C@@H]2C1CC1,inconclusive: 26.7%

# Entries above that contain a CF3 group, in the order listed:
row,SMILES,CPE inhibition
16,C[C@H]1CN([C@@H](C)CO)C(=O)c2cc(NC(=O)CCCN(C)C)ccc2O[C@H]1CN(C)Cc1ccc(C(F)(F)F)cc1,inactive: 3.6%
4,Cc1cc(C(=O)Nc2cccc3c2O[C@H](CN(C)C(=O)Nc2ccc(C(F)(F)F)cc2)[C@@H](C)CN([C@H](C)CO)C3=O)n(C)n1,active: 38.3%
